Data from publication doi:10.1101/299552.
No constants are given. Whether binding was seen depends on the method and setting. Binding seen in cells or lysates may run through a third protein. Tags and fused reporters may be left off the sequences shown.

Chains of the proteins cited; added tags and fusions are not shown. Lines headed by an entry give the natural chain unless they say otherwise; changes in a name come on top.
UniProt Q5DTM8: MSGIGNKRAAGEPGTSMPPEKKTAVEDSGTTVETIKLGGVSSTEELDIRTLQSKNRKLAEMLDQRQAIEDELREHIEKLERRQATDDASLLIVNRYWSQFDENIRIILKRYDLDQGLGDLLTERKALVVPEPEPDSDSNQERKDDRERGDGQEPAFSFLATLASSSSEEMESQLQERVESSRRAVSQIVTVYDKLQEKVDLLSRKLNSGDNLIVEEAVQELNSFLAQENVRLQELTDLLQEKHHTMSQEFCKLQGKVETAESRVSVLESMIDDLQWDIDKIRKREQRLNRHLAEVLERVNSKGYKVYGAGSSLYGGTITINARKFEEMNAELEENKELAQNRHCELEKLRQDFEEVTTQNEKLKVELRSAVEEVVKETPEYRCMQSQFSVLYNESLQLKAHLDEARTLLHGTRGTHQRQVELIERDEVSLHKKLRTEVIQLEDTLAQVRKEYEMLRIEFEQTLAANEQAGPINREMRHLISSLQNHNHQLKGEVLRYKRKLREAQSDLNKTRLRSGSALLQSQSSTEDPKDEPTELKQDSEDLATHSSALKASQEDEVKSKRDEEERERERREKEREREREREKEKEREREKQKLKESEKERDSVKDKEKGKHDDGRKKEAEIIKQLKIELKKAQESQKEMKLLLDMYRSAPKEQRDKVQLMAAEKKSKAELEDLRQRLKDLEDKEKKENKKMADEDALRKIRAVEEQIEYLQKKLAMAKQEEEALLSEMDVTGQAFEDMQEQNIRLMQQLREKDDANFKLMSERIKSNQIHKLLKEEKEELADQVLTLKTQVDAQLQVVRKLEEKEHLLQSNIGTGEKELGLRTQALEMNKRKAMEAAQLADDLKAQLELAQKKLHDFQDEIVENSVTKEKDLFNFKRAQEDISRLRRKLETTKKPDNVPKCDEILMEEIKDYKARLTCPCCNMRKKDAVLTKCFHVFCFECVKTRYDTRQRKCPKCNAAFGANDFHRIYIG

Target: T1, FS2-FBXL19 (epitope-tagged wild-type FBXL19, stable mouse ES cell line) (mouse) (UniProt Q6PB97)
T1 sequence: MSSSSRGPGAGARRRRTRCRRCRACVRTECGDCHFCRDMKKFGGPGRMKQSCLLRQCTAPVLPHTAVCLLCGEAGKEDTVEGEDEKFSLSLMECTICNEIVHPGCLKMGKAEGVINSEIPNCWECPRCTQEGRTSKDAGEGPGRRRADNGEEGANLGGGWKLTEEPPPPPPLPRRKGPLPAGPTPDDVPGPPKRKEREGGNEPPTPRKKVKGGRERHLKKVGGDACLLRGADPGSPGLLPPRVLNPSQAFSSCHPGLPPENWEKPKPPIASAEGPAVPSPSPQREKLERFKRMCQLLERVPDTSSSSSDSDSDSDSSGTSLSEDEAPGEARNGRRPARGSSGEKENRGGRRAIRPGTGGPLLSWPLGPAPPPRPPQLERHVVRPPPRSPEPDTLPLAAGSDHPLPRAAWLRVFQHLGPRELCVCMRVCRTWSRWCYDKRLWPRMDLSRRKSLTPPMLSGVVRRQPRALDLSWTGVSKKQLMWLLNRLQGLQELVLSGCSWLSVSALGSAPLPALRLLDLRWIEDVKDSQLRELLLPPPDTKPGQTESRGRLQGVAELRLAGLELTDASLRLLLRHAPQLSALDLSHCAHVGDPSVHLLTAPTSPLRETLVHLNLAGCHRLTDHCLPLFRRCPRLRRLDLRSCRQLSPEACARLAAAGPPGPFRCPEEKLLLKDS
Assay: pull-down

For “RNF20/40 E3 ubiquitin ligase (from UniProt Q5DTM8 1-973; Q3U319 1-1001) (complex)”, the binding was “no binding”.
